PubChem BioAssay AID1508597 – Cure First | 2020

- Aim: 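Survival screen with siRNA in ovarian cancer cells derived from patients, with or without rucaparib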 (primary screen)
- System: human ovarian carcinoma lines grown from tumours: OCI-P5x (papillary serous) and OCI-C5x (clear cell)
- Reagents: siRNA pool against human genes, 1.25 pmol siRNA per well
- Duration: 72 h or 96 h, depending on the cell culture
- Treatment: rucaparib 20 µM (about IC30) or vehicle, present until read-out
- Rucaparib or vehicle: Rucaparib
- Cell line: OCI-C5x (clear cell)
- Measurement: 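Luminescent ATP-based viability assay read 72 or 96 h after transfection, depending on culture, given as normalised percent viability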
- Reading the numbers: viability, normalised: higher = more viable cells remaining
- Active means: 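a well counts as a hit if its normalised viability is under 80 percent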
- Meaning of the calls: active = viability under 80%; inactive = viability 80% or more
This is a random part of the about 2,100 reagents, in one setting of the screen. 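Calls flag viability under 80% in either arm, not effects specific to rucaparib; the reference for percent is not stated.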 A reagent listed more than once was tested more than once; the source does not tell the runs apart. Reagent sequences are not shown. Not given: the 100% reference.

{"Gene": "CRADD", "technical replicate": "1", "viability, normalised (%)": 61.3, "outcome": "active"}
{"Gene": "CRADD", "technical replicate": "2", "viability, normalised (%)": 74.5, "outcome": "active"}
{"Gene": "CRADD", "technical replicate": "3", "viability, normalised (%)": 63.2, "outcome": "active"}
{"Gene": "ATM", "technical replicate": "1", "viability, normalised (%)": 56.4, "outcome": "active"}
{"Gene": "ATM", "technical replicate": "1", "viability, normalised (%)": 74.8, "outcome": "active"}
{"Gene": "ATM", "technical replicate": "2", "viability, normalised (%)": 66.4, "outcome": "active"}
{"Gene": "ATM", "technical replicate": "2", "viability, normalised (%)": 72.2, "outcome": "active"}
{"Gene": "ATM", "technical replicate": "3", "viability, normalised (%)": 78.9, "outcome": "active"}
{"Gene": "ATM", "technical replicate": "3", "viability, normalised (%)": 53.9, "outcome": "active"}
{"Gene": "BAZ1A", "technical replicate": "1", "viability, normalised (%)": 65, "outcome": "active"}
{"Gene": "BAZ1A", "technical replicate": "2", "viability, normalised (%)": 56.8, "outcome": "active"}
{"Gene": "BAZ1A", "technical replicate": "3", "viability, normalised (%)": 49.3, "outcome": "active"}
{"Gene": "SMC2", "technical replicate": "1", "viability, normalised (%)": 52.8, "outcome": "active"}
{"Gene": "SMC2", "technical replicate": "2", "viability, normalised (%)": 51.2, "outcome": "active"}
{"Gene": "SMC2", "technical replicate": "3", "viability, normalised (%)": 45.3, "outcome": "active"}
{"Gene": "NPM2", "technical replicate": "1", "viability, normalised (%)": 62.9, "outcome": "active"}
{"Gene": "NPM2", "technical replicate": "2", "viability, normalised (%)": 61.1, "outcome": "active"}
{"Gene": "NPM2", "technical replicate": "3", "viability, normalised (%)": 44.4, "outcome": "active"}
{"Gene": "ING1", "technical replicate": "1", "viability, normalised (%)": 57.2, "outcome": "active"}
{"Gene": "ING1", "technical replicate": "2", "viability, normalised (%)": 49.9, "outcome": "active"}
{"Gene": "ING1", "technical replicate": "3", "viability, normalised (%)": 57.1, "outcome": "active"}

Entries above whose gene name begins with C or c:
{"Gene": "CRADD", "technical replicate": "1", "viability, normalised (%)": 61.3, "outcome": "active"}
{"Gene": "CRADD", "technical replicate": "2", "viability, normalised (%)": 74.5, "outcome": "active"}
{"Gene": "CRADD", "technical replicate": "3", "viability, normalised (%)": 63.2, "outcome": "active"}
